In PMC10851228:
No constants are given. Whether binding was seen depends on the method and setting. Binding seen in cells or lysates may run through a third protein. Some binding calls cover weakened binding; strength is not graded here. Tags and fused reporters may be left off the sequences shown.

Target: T1, His-tagged Snf1 (S. cerevisiae) (UniProt P06782)
T1 sequence: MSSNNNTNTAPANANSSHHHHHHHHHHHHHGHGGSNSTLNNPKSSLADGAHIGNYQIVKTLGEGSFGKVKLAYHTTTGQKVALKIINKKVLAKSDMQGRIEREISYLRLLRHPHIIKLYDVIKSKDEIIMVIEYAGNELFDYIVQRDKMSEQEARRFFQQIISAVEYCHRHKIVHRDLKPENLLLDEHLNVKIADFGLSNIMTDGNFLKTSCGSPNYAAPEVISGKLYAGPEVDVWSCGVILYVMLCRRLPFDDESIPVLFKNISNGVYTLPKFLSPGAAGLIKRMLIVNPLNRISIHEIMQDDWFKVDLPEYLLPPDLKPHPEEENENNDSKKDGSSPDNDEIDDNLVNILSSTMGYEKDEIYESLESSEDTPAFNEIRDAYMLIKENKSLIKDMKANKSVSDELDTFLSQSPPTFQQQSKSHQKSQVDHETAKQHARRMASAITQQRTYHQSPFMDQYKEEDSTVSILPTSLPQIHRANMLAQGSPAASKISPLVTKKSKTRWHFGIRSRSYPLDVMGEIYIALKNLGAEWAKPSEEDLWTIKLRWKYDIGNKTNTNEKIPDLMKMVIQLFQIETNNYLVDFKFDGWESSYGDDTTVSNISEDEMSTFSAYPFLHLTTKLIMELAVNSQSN
Test: pull-down; co-purification from lysate of E. coli co-expressing the subunits; His-tagged Snf1 held on Talon beads (the results say nickel column), 1 h at 4 °C; 25 mM Tris-HCl, 200 mM NaCl, 10 mM imidazole, 5 mM β-mercaptoethanol, pH 7.4; washed three times; eluted with 200 mM imidazole

Row | Binder | binding
1 | Snf4 (protein, UniProt P12904 1-322) MKPTQDSQEKVSIEQQLAVESIRKFLNSKTSYDVLPVSYRLIVLDTSLLVKKSLNVLLQNSIVSAPLWDSKTSRFAGLLTTTDFINVIQYYFSNPDKFELVDKLQLDGLKDIERALGVDQLDTASIHPSRPLFEACLKMLESRSGRIPLIDQDEETHREIVVSVLTQYRILKFVALNCRETHFLKIPIGDLNIITQDNMKSCQMTTPVIDVIQMLTQGRVSSVPIIDENGYLINVYEAYDVLGLIKGGIYNDLSLSVGEALMRRSDDFEGVYTCTKNDKLSTIMDNIRKARVHRFFVVDDVGRLVGVLTLSDILKYILLGSN | binds
2 | Gal83 (protein, UniProt Q04739 1-417) MAGDNPENKDASMLDVSDAASNTTINGKHSADSTNEASLAYTFSQMNVDNPNELEPQHPLRHKSSLIFNDDDDDEIPPYSNHAENGSGETFDSDDDIDASSSSSIDSNEGDIHDADMTGNTLQKMDYQPSQQPDSLQNQGFQQQQEQQQGTVEGKKGRAMMFPVDITWQQGGNKVYVTGSFTGWRKMIGLVPVPGQPGLMHVKLQLPPGTHRFRFIVDNELRFSDYLPTATDQMGNFVNYMEVSAPPDWGNEPQQHLAEKKANHVDDSKLSKRPMSARSRIALEIEKEPDDMGDGYTRFHDETPAKPNLEYTQDIPAVFTDPNVMEQYYLTLDQQQNNHQNMAWLTPPQLPPHLENVILNSYSNAQTDNTSGALPIPNHVILNHLATSSIKHNTLCVASIVRYKQKYVTQILYTPLQ | binds
